PubChem BioAssay AID1224828 | NIAID | 2016
Test: 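Regulators linking TLR4 signalling to p65 nuclear translocation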 (primary screen). Cells: mouse RAW264.7 G9 macrophage reporter cells (GFP-p65, Tnf promoter-mCherry). Reagents: siRNA pool against mouse genes, 100 nM. Time to read-out: 2 days siRNA transfection, then 40 min LPS before fixation. Conditions: LPS (Salmonella minnesota R595) at 10 ng/ml. Measurement: 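Imaged p65 nuclear translocation ratio, normalised to the plate median, converted to robust z-scores and averaged across two replicates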. Scale: p65 translocation robust z-score: higher = more nuclear NF-kappaB p65 after LPS than the plate median; nuclear/cytoplasmic p65 ratio: higher = more nuclear NF-kappaB p65. Hit rule: 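Called active when z exceeds 3.3 or falls under -1.56 (median of Tlr4 controls), giving activity score of at least 50; no calls for control wells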. Meaning of the calls: active = hit (p65 shift raised or lowered); inactive = no clear change.
In all, the deposit lists about 17,000 reagents; shown is a part drawn at random. Of all reagents, 762 (4.5%) got an active call. 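Active calls include both raised and lowered p65 entry, mostly lowered; wells with fewer than 50 cells lack a z-score.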 Raw values vary from plate to plate and are shown uncorrected. The numbers tell different reagents against one gene apart.

gene | pool no. | p65 translocation robust z-score | nuclear/cytoplasmic p65 ratio, rep 1 | nuclear/cytoplasmic p65 ratio, rep 2 | low cell count flag | call
Prl7c1 | 1 | 0.05 | 1.41 | 1.2 | enough cells to score | inactive
Mansc1 | 1 | – | 1.33 | 1.57 | fewer than 50 cells per well; well left out of scoring | inactive
Rell2 | 1 | – | 1.4 | 1.11 | fewer than 50 cells per well; well left out of scoring | inactive
Kat2a | 1 | – | 1.31 | 1.22 | fewer than 50 cells per well; well left out of scoring | inactive
Mfsd1 | 1 | – | 1.37 | 1.57 | fewer than 50 cells per well; well left out of scoring | inactive
Ucn3 | 1 | – | 1.59 | 1.37 | fewer than 50 cells per well; well left out of scoring | inactive
Pls3 | 1 | -0.73 | 1.28 | 1.33 | enough cells to score | inactive
Ppme1 | 1 | 2.67 | 1.8 | 2.22 | enough cells to score | inactive
Gc | 1 | -0.36 | 1.28 | 1.43 | enough cells to score | inactive
Gtf3c1 | 1 | 0.76 | 1.51 | 1.45 | enough cells to score | inactive
Lect2 | 1 | 1.53 | 1.79 | 1.62 | enough cells to score | inactive
Rph3al | 1 | -1.21 | 1.24 | 1.1 | enough cells to score | inactive
Prpsap1 | 1 | 2.41 | 2.14 | 1.64 | enough cells to score | inactive
Crip1 | 1 | 0.91 | 1.62 | 2.03 | enough cells to score | inactive
Zfp958 | 1 | -0.01 | 1.58 | 1.83 | enough cells to score | inactive
Prkd1 | 1 | -0.35 | 1.65 | 1.32 | enough cells to score | inactive
Ssu2 | 1 | 0.97 | 1.69 | 1.5 | enough cells to score | inactive
Fbxo5 | 1 | -1.31 | 1.36 | 1.19 | enough cells to score | inactive
Atl3 | 1 | -0.32 | 1.28 | 1.46 | enough cells to score | inactive
Cmah | 1 | -0.57 | 1.42 | 1.78 | enough cells to score | inactive
Arhgap28 | 1 | 1.76 | 1.68 | 1.6 | enough cells to score | inactive
Katnal2 | 1 | – | 1.17 | 1.41 | fewer than 50 cells per well; well left out of scoring | inactive
Csrnp1 | 1 | 0.09 | 1.68 | 1.58 | enough cells to score | inactive
Tuba3a | 1 | -0.09 | 1.58 | 1.41 | enough cells to score | inactive
Ipo11 | 1 | 0.35 | 1.62 | 1.46 | enough cells to score | inactive
Zp2 | 1 | 0.7 | 1.66 | 1.66 | enough cells to score | inactive
Slc17a7 | 1 | – | 0.941 | 1.02 | fewer than 50 cells per well; well left out of scoring | inactive
Tnfsf8 | 1 | -0.24 | 1.5 | 1.47 | enough cells to score | inactive
Zfp60 | 1 | -1.2 | 1.24 | 1.13 | enough cells to score | inactive
Zfp60 | 2 | – | 1.3 | 1.46 | fewer than 50 cells per well; well left out of scoring | inactive
Vmn1r208 | 1 | – | 1.01 | 1.36 | fewer than 50 cells per well; well left out of scoring | inactive
Cdk5r1 | 1 | 0.51 | 1.74 | 1.47 | enough cells to score | inactive
Mef2c | 1 | – | 1.27 | 1.14 | fewer than 50 cells per well; well left out of scoring | inactive
Entrep2 | 1 | -0.35 | 1.29 | 1.45 | enough cells to score | inactive
Lars2 | 1 | 1.36 | 1.7 | 1.65 | enough cells to score | inactive
Elp5 | 1 | -0.24 | 1.49 | 1.47 | enough cells to score | inactive
Tacc2 | 1 | 0.52 | 1.57 | 1.62 | enough cells to score | inactive
Sprr2e | 1 | 0.94 | 1.56 | 1.32 | enough cells to score | inactive
Or2aj5 | 1 | 0.07 | 1.65 | 1.4 | enough cells to score | inactive
Wnt9a | 1 | -0.61 | 1.49 | 1.36 | enough cells to score | inactive
Pld2 | 1 | 0.36 | 1.39 | 1.26 | enough cells to score | inactive
Map3k6 | 1 | 0.23 | 1.89 | 1.4 | enough cells to score | inactive
Pcdhgb7 | 1 | 0.72 | 1.51 | 1.35 | enough cells to score | inactive
Ikzf5 | 1 | 0.5 | 1.55 | 1.25 | enough cells to score | inactive
Pdcl3 | 1 | -2.13 | 1.08 | 1.06 | enough cells to score | active
Acvr2a | 1 | -0.48 | 1.62 | 1.32 | enough cells to score | inactive
Impdh1 | 1 | 0.43 | 1.48 | 1.49 | enough cells to score | inactive
Bcl9 | 1 | -0.64 | 1.45 | 1.58 | enough cells to score | inactive
Wnt11 | 1 | -0.34 | 1.62 | 1.41 | enough cells to score | inactive
Trap1 | 1 | -0.73 | 1.5 | 1.51 | enough cells to score | inactive
St8sia1 | 1 | -0.03 | 1.42 | 1.25 | enough cells to score | inactive
St8sia1 | 2 | 0.91 | 1.51 | 1.71 | enough cells to score | inactive
Sp7 | 1 | -0.52 | 1.4 | 1.55 | enough cells to score | inactive
Trem3 | 1 | 0.55 | 1.43 | 1.26 | enough cells to score | inactive
Otor | 1 | 1.67 | 1.7 | 1.6 | enough cells to score | inactive
Gng12 | 1 | -0.67 | 1.47 | 1.43 | enough cells to score | inactive
Clec11a | 1 | 0.28 | 1.55 | 1.64 | enough cells to score | inactive
Lce1e | 1 | -0.84 | 1.4 | 1.36 | enough cells to score | inactive
Alb | 1 | -0.67 | 1.54 | 1.49 | enough cells to score | inactive

Reprinted from the entries so far, 9 entries:
gene | pool no. | p65 translocation robust z-score | nuclear/cytoplasmic p65 ratio, rep 1 | nuclear/cytoplasmic p65 ratio, rep 2 | low cell count flag | call
Elp5 | 1 | -0.24 | 1.49 | 1.47 | enough cells to score | inactive
Tacc2 | 1 | 0.52 | 1.57 | 1.62 | enough cells to score | inactive
Sprr2e | 1 | 0.94 | 1.56 | 1.32 | enough cells to score | inactive
Or2aj5 | 1 | 0.07 | 1.65 | 1.4 | enough cells to score | inactive
Wnt9a | 1 | -0.61 | 1.49 | 1.36 | enough cells to score | inactive
Pld2 | 1 | 0.36 | 1.39 | 1.26 | enough cells to score | inactive
Map3k6 | 1 | 0.23 | 1.89 | 1.4 | enough cells to score | inactive
Pcdhgb7 | 1 | 0.72 | 1.51 | 1.35 | enough cells to score | inactive
Ikzf5 | 1 | 0.5 | 1.55 | 1.25 | enough cells to score | inactive
